Measured values: patent US20220340682A1 (Sanofi, published 2022)

B1: antibody MAb1 (antibody, IgG1, V domains shown)
VH: EVMLVESGGGLVKPGGSLKLSCAASGFTFSSYAMSWVRQTPEKRLEWVATISSGGSYIYYLDSVKGRFTISRDNAKNTLYLQMSSLRSEDTAMYYCARPAYYGNPAMDYWGQGTSVTVSS
VL: DILMTQSQKFMSTSVGDRVSVTCKASQNVGTNVAWYQQKPGQSPKPLIYSASYRYSGVPDRFTGSGSGTDFTLTISNVQSEDLAEYFCQQYNSYPLYTFGGGTKLEIK
B2: antibody MAb2 (antibody, mouse IgG1, V domains shown)
VH: EVQLQESGGVLVKPGGSLKLSCAASGFVFSSYDMSWVRQTPEKRLEWVAYISSGGGITYFPDTVQGRFTVSRDNAKNTLYLQMNSLKSEDTAIYYCAAHYFGSSGPFAYWGQGTLVTVSA
VL: DIQMTQSPASLSASVGETVTITCRASENIFSYLAWYQQKQGKSPQLLVYNTKTLAEGVPSRFSGSGSGTQFSLKINSLQPEDFGSYYCQHHYGTPFTFGSGTKLEIK
notes: Murine IgG1, kappa; Rows are tied to the label as printed
B3: antibody MAb3 (antibody, IgG1, V domains shown)
VH: EVKLVESGGGLVKPGGSLTLPCAASGFTFSRYAMSWVRQTPEKRLEWVASISSGGDTYYPDSVKGRFTVSRDNARNILFLQMSSLRSEDTGMYYCARVNYYDSSFLDWWGQGTTLTVSS
VL: B1 VL with L3V, K9R, S14L, V15E, P46A, S93N
notes: Murine monoclonal from hybridoma, IgG1, kappa
B4: antibody MAb4 (antibody, IgG1, V domains shown)
VH: EVQLVESGGGLVKPGGSLKLSCAASGFTFSSYDMSWVRQTPEKRLEWVAFISSYGGRTYYADTVKGRFTISRDNAKNTLYLQMSSLKSEDTAMFYCAAHYFGTSGPFAYWGQGTLVTVSA
VL: B2 VL with F30Y, L33F, T51A, T53I, S85T, T94I, I106L
notes: as for B3
B5: antibody MAb5 (antibody, IgG1, V domains shown)
VH: ELQLVESGGVLVKPGGSLKLSCAASGFAFSSYDMSWVRQTPEKRLEWVTYINSGGGITYYPDTVKGRFTISRDNARNTLYLQMSSLKSEDTAIYYCTAHYFGSSGPFAYWGQGTLVTVSA
VL: B2 VL with F30Y, T51A, A55T
notes: as for B3

Target: cCEACAM5_A1-B1_143-320 (Macaca fascicularis)
Experiment: ELISA on coated recombinant CEACAM5 protein or domain, anti-mouse IgG-HRP, OD 450 nm

| Binder | binding |
| --- | --- |
| B1 | no binding |
| B2 | no binding |
| B3 | no binding |
| B4 | no binding |
| B5 | no binding |

Where a chain is given by its changes, count along the chain named. These are yes or no findings as the source states them, for the method shown.
